Assay results reported in PubChem BioAssay AID624246 (National Center for Advancing Translational Sciences (NCATS), 2012).
The whole screen tested about 370,000 compounds, of which about 100 (0.027%) were called active. This list was built around the results that the source calls inconclusive (neither active nor inactive); the mix of calls is not that of the screen. Calls come from the whole dose curve; as a rule, active = well fitted inhibition curve with a large enough effect in the polarisation, with a control signal flat; inconclusive = small, poorly fitted or top-dose-only effect, or effect the other way, or a change in a side signal; inactive = no such curve, though single readings can be large or run the other way; the % refers to the polarisation. Where the call is inconclusive, the potency comes from a doubtful curve fit. “Side channel” marks fits to a control or component signal instead of the main read-out.

The chains behind the UniProt entries cited, without tags or fusion partners. Where a name states a change or a piece, a line headed by the entry shows the natural chain unless it says otherwise.
UniProt P11308: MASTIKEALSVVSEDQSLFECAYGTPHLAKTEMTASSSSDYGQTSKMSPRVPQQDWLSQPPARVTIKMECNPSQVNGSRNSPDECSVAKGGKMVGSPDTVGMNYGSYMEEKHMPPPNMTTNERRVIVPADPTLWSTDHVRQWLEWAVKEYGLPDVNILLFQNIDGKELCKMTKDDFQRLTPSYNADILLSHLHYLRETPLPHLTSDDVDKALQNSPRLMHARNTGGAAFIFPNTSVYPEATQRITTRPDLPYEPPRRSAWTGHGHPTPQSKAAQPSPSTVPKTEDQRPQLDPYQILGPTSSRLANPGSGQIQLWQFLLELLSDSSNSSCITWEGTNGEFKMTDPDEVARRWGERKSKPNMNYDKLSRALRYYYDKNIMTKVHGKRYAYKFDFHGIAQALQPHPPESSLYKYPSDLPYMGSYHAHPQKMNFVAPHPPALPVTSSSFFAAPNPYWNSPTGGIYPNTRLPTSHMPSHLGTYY

What follows are molecules tested against Transcriptional regulator ERG (Homo sapiens) (UniProt P11308) (assay: qHTS for Small Molecule Inhibitors of the ERG Ets/DNA interaction). Conditions: fluorescence polarization, His-ERG Ets domain / labelled DNA; series mostly up to 76.9 µM.
Outline: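 His-tagged ERG Ets domain (1 uM in the protein solution; 300mM KCl, 50mM Tris-HCl, 1mM EDTA, 1mM DTT, pH 7.5) received compound, then a probe mix of 5 nM fluorescein-DNA and 100nM Texas-615-DNA. Fluorescence polarization was read for both dyes.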
Potency is the fitted concentration of half-maximal effect.

Question: Which Potency does the source give for `Cc1cc(C)nc(N2CCCC(C(=O)Nc3ccc(F)cc3)C2)n1` (centres undefined) here?
Answer: inconclusive: 3.55 µM [inhibitor, partial curve, poor fit]

Question: `CCOc1ccc(NC(=S)Nc2ccc(F)cc2)cc1` was tested. Which Potency did it give?
Answer: inactive

Question: Which Potency does the source give for `COc1ccc(CN(C)Cc2c(O)ccc3cc(Br)ccc23)cc1OC` here?
Answer: inactive

Question: `C=CCC[C@H](Cc1ccc(F)cc1)C(=O)OC[C@@H](Cc1c[nH]c2ccccc12)NC(=O)[C@H](CC=C)CC(=O)N(CCO)Cc1ccccc1` was tested. Which Potency did it give?
Answer: inconclusive: 56.2 µM [inhibitor, partial curve, poor fit]

Question: How did the Potency turn out when `CC(C)(CNC(=O)CC1C(=O)NCCN1Cc1cccc(F)c1)N1CCOCC1` (centres undefined) was run?
Answer: inconclusive: 2.51 µM [inhibitor, partial curve, poor fit]

Question: How did the Potency turn out when `COc1cccc(/C=N/n2c(-c3cc(C)[nH]n3)n[nH]c2=S)c1` was run?
Answer: inactive

Question: For `CCc1ccccc1NC(=O)CSc1nnc(COc2ccccc2Cl)o1`, which Potency is on record?
Answer: inconclusive: 31.6 µM [inhibitor, partial curve, poor fit]

Question: With `CCN(CC)c1ccc(NC(=O)CCS(=O)(=O)c2ccc3c(c2)oc(=O)n3C)c(C)c1` as the molecule, how does the Potency read?
Answer: inconclusive: 3.16 µM [quencher, side channel, partial curve, poor fit]

Question: `COc1cccc2c1C(=O)c1c(O)c3c(c(O)c1C2=O)C[C@@](O)(C(C)=O)C[C@@H]3O[C@H]1C[C@H](N)[C@H](O)[C@H](C)O1` was tested. Which Potency did it give?
Answer: active: 0.794 µM

Question: For `CCCCN1C(=N)N([C@@H](CCC)CN2CCC[C@H]2CN2C(N)=NC[C@@H]2Cc2ccccc2)C[C@H]1Cc1ccccc1`, which Potency is on record?
Answer: inactive

Question: Which Potency does the source give for `COC(=O)c1ccsc1NC(=O)c1cccc(OC)c1` here?
Answer: inconclusive: 7.08 µM [inhibitor, partial curve, poor fit]

Question: Which Potency does the source give for `CC(=O)c1cc(-c2ccccc2)n(CCC(=O)NC(C)(C)C)c1C` here?
Answer: inconclusive: 14.1 µM [inhibitor, partial curve, poor fit]

Question: With `CCOc1ccc(C2OC34CCCCC3C(C#N)(C#N)C2(C#N)C(=N)O4)cc1OC` (centres undefined) as the molecule, how does the Potency read?
Answer: inconclusive: 39.8 µM [fluorescent, side channel, single point]

Question: For `COc1ccc(Oc2ccc(N/C=C3\CCCC3=O)cc2)cc1`, which Potency is on record?
Answer: inconclusive: 35.5 µM [inhibitor, single point]

Question: With `Cc1cc(OCC(=O)N2CCC(C(N)=O)CC2)c2c(C)c(C)c(=O)oc2c1` as the molecule, how does the Potency read?
Answer: inconclusive: 39.8 µM [inhibitor, single point]

Question: For `Cc1nnc(SCc2cccc(Cl)c2)n(N)c1=O`, which Potency is on record?
Answer: inconclusive: 1 µM [quencher, side channel, full curve, poor fit]

Question: With `CCOc1ccc(N(CC(=O)NCCc2ccc(Cl)cc2)S(=O)(=O)c2c(C)[nH]c(=O)[nH]c2=O)cc1` as the molecule, how does the Potency read?
Answer: inconclusive: 3.98 µM [inhibitor, partial curve, poor fit]

Question: With `CCOC(=O)c1c(NC(=O)CN2C(=O)NC3(CCC(C)CC3)C2=O)sc(C)c1-c1ccc(C)cc1` (centres undefined) as the molecule, how does the Potency read?
Answer: inconclusive: 0.891 µM [inhibitor, full curve, poor fit]

Question: `Cc1ccc(NC(=O)COc2ccc3oc4c(c3c2)CCCC4)cc1C` was tested. Which Potency did it give?
Answer: inconclusive: 6.31 µM [quencher, side channel, full curve, poor fit]

Question: How did the Potency turn out when `c1cncc(-c2nc(NCCCN3CCOCC3)c3c4c(sc3n2)CCC4)c1` was run?
Answer: inconclusive: 7.94 µM [quencher, side channel, single point]

Question: For `CC1(C)C(=O)NCCN1C(=O)c1ccc2nc(Cc3ccccc3F)oc2c1`, which Potency is on record?
Answer: inconclusive: 11.2 µM [inhibitor, single point]

Question: Which Potency does the source give for `CC1(C)c2ccccc2N2CCC(=O)NC21/C=C/c1ccco1` (centres undefined) here?
Answer: inconclusive: 44.7 µM [fluorescent, side channel, single point]

Question: Which Potency does the source give for `COc1ccc(-n2nc(C(=O)NCC(=O)Nc3cc(OC)ccc3OC)c3ccccc3c2=O)cc1` here?
Answer: inconclusive: 6.31 µM [inhibitor, partial curve, poor fit]

Question: Which Potency does the source give for `COc1ccc(CC(=O)NC(C)(C)CC(C)=O)cc1OC` here?
Answer: inconclusive: 10 µM [fluorescent, side channel, partial curve, poor fit]

Question: `CCCN(CCC)Cc1c(C(=O)N/N=C/c2cccs2)nnn1-c1nonc1N` was tested. Which Potency did it give?
Answer: inconclusive: 1.26 µM [inhibitor, partial curve, poor fit]

Question: How did the Potency turn out when `O=C(c1ccccc1)c1ccc[nH]1` was run?
Answer: inconclusive: 6.31 µM [inhibitor, single point]

Question: With `CCOc1ccccc1N(C)S(=O)(=O)c1ccc2[nH]cc(C(=O)N(CCOC)CCOC)c(=O)c2c1` as the molecule, how does the Potency read?
Answer: inconclusive: 11.2 µM [inhibitor, single point]

Question: With `CC(C)c1cccc(C(C)C)c1NC(=O)COC(=O)[C@H](C)NC(N)=O` as the molecule, how does the Potency read?
Answer: inconclusive: 5.01 µM [quencher, side channel, full curve]

Question: Which Potency does the source give for `c1ccc(CCSc2ncnc3nc[nH]c23)cc1` here?
Answer: inactive

Question: For `C/C(CC(=O)N1CCN(C=O)CC1)=N\NC(=O)c1ccc([N+](=O)[O-])cc1`, which Potency is on record?
Answer: inactive

Question: With `Cn1ncc2c(Nc3ccc(O)cc3)nc(Cl)nc21` as the molecule, how does the Potency read?
Answer: inactive

Question: For `C[C@]12CC[C@@H]3c4ccc(OC(=O)c5ccccc5)cc4CC[C@H]3[C@@H]1CC[C@@H]2O`, which Potency is on record?
Answer: inactive

Question: `COc1cc(C2NC(=O)C(C#N)=C(S)N2c2ccccc2)ccc1OC(C)C` (centres undefined) was tested. Which Potency did it give?
Answer: inactive

Question: For `CN(C)C(CNC(=O)c1cccc(S(=O)(=O)N2CCN(c3ccccc3)CC2)c1)c1ccccc1` (centres undefined), which Potency is on record?
Answer: inactive

Question: With `CC12CCC(=O)N1C(C(=O)NCCN1C(=O)S/C(=C\c3ccccc3Cl)C1=O)CS2` (centres undefined) as the molecule, how does the Potency read?
Answer: inconclusive: 3.55 µM [inhibitor, partial curve, poor fit]

Question: How did the Potency turn out when `CCCCC1=NN(C(=O)c2ccco2)C(O)(C(F)(F)F)C1` (centres undefined) was run?
Answer: inconclusive: 31.6 µM [inhibitor, single point]

Question: For `COc1ccc(N2CCN(c3ncccc3-c3nc(-c4ccccc4C)no3)CC2)cc1`, which Potency is on record?
Answer: inactive

Question: Which Potency does the source give for `Cc1cc(S(=O)(=O)N2CCOCC2)ccc1OCC(=O)Nc1ccc(F)c(Cl)c1` here?
Answer: inconclusive: 3.16 µM [inhibitor, partial curve, poor fit]

Question: Which Potency does the source give for `O=C(O)c1cccc(N2C(=O)c3cccc4cccc(c34)C2=O)c1` here?
Answer: inactive
